Record: PubChem BioAssay AID1224830 (NIAID, 2016)

Purpose: 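Host factors that control LPS-induced TNF expression in human macrophages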 (primary screen)
Cell system: human THP-1 monocytic leukaemia cells, TNF dual-luciferase reporter clone, PMA-differentiated to macrophage-like cells
Knock-down reagent: siRNA pool against human genes, 50 nM
Duration: LPS for 4 h, given about 3 days after siRNA transfection
Challenge: bacterial LPS (TLR4 ligand), 10 ng/ml
Read-out: 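TNF firefly reporter luminescence divided by renilla, normalised to the plate median, then turned into a robust z-score for each replicate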
Scale: TNF reporter robust z-score: higher = stronger TNF reporter response to LPS
Rule for the call: 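a well is active when its z-score exceeds 2.8 or falls below -1.5; control wells carry no call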
In all, the deposit lists about 18,000 reagents; below is an unselected part. Of all reagents, about 2,900 (16%) are marked active. 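Calls are made per well; low scores hint the gene aids the LPS response, high scores that it dampens it.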 Repeated entries: four replicate wells of each siRNA pool.

no.	Gene	TNF reporter robust z-score	Outcome
1	SLC34A1	1.46	inactive
2	SLC34A1	1.08	inactive
3	SLC34A1	1.26	inactive
4	SLC34A1	0.95	inactive
5	HNF1B	-0.62	inactive
6	HNF1B	0.56	inactive
7	HNF1B	-0.31	inactive
8	HNF1B	0.37	inactive
9	THOC2	-1.64	active
10	THOC2	-0.24	inactive
11	THOC2	-0.93	inactive
12	THOC2	-0.72	inactive
13	CHD9	0.27	inactive
14	CHD9	0.32	inactive
15	CHD9	-0.08	inactive
16	CHD9	0.69	inactive
17	DCHS1	0.42	inactive
18	DCHS1	2	inactive
19	DCHS1	2.59	inactive
20	DCHS1	1.65	inactive
21	ANKRD49	0.05	inactive
22	ANKRD49	0.98	inactive
23	ANKRD49	-0.02	inactive
24	ANKRD49	0.34	inactive
25	KTI12	-0.61	inactive
26	KTI12	0.44	inactive
27	KTI12	-1.18	inactive
28	KTI12	-0.6	inactive
29	HYAL2	1.01	inactive
30	HYAL2	0.32	inactive
31	HYAL2	2.67	inactive
32	HYAL2	0.07	inactive
33	GDF11	1.11	inactive
34	GDF11	1.24	inactive
35	GDF11	1.29	inactive
36	GDF11	2.64	inactive
37	DYM	0.93	inactive
38	DYM	-0.18	inactive
39	DYM	0.5	inactive
40	DYM	-0.55	inactive
41	P2RY11	-0.82	inactive
42	P2RY11	-0.79	inactive
43	P2RY11	-0.91	inactive
44	P2RY11	-1.13	inactive
45	C12orf60	-0.15	inactive
46	C12orf60	-0.54	inactive
47	C12orf60	-0.39	inactive
48	C12orf60	-0.06	inactive
49	PTGES2	-0.25	inactive
50	PTGES2	0.85	inactive
51	PTGES2	1.33	inactive
52	PTGES2	2.18	inactive
53	KIFC2	0.34	inactive
54	KIFC2	0.61	inactive
55	KIFC2	0.73	inactive
56	KIFC2	3.13	active
57	LDHA	1.06	inactive
58	LDHA	1.69	inactive
59	LDHA	0.01	inactive
60	LDHA	0.78	inactive
61	EIF2B5	-0.54	inactive
62	EIF2B5	-0.62	inactive
63	EIF2B5	-0.03	inactive
64	EIF2B5	0.42	inactive
65	SLC16A2	-1.11	inactive
66	SLC16A2	-0.17	inactive
67	SLC16A2	-0.63	inactive
68	SLC16A2	-0.47	inactive
69	NECAB2	-0.1	inactive
70	NECAB2	-0.51	inactive
71	NECAB2	-0.55	inactive
72	NECAB2	-0.17	inactive
73	NINJ1	2.14	inactive
74	NINJ1	1.78	inactive
75	NINJ1	2.69	inactive
76	NINJ1	0.35	inactive

Ordered by “TNF reporter robust z-score” (high to low): 11 of the entries above
Gene	TNF reporter robust z-score	Outcome
CHD9	0.69	inactive
DCHS1	0.42	inactive
HNF1B	0.37	inactive
CHD9	0.32	inactive
CHD9	0.27	inactive
CHD9	-0.08	inactive
THOC2	-0.24	inactive
HNF1B	-0.31	inactive
THOC2	-0.72	inactive
THOC2	-0.93	inactive
THOC2	-1.64	active
